Experimental findings from paper PMC7819943, “Rice protein-binding microarrays: a tool to detect cis-acting elements near promoter regions in rice” are described below.

Amino acid sequences for entries named in this document (tags omitted).
UniProt Q0JBA9, entry or part of it: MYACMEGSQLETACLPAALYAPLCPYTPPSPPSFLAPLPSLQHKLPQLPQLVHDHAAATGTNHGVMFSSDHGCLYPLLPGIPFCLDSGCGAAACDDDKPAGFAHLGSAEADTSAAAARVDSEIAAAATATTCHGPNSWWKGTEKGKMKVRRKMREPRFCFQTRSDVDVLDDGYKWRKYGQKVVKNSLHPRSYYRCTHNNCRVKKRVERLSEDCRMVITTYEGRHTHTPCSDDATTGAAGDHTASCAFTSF

The list shows a part of the results.

For this assay, the target named is OsWRKY34 (Oryza sativa, UniProt Q0JBA9 1-250). Put plainly: protein-binding microarray (RPBM); PBS, 2% BSA, 51.3 ng/ul salmon testes DNA, 50 uM zinc acetate, 200 nM TF, 25 C, 1 h; high values mean tight binding. Conditions: protein: recombinant; tags: N-terminal polyhistidine and DsRed monomer fusion (pET32a); label: CyDye5-dUTP incorporated in the synthesized complementary strand; 3' TTTTT single-stranded linker to array surface; dsDNA, one strand shown. In outline: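 Ni–NTA purification followed expression in E. coli BL21-CodonPlus of transcription factors fused N-terminally to a polyhistidine tag and DsRed. At 200 nM in PBS with 2% BSA, salmon testes DNA and 50 µM zinc acetate, the protein was incubated for 1 h at 25 °C with a custom Agilent array that had been primer-extended with Cy5-dUTP and blocked with 2% BSA. After washing, the array was read on an Axon 4000B scanner. The binding signal is per-feature fluorescence intensity in arbitrary units.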
For “CCCGGTTGACCACTACTTTTGCGATTTTTCATAAAAATAACGGAGTCACCTAGTGCAG”, the binding signal was 8260 fluorescence intensity (a.u.).

“GACGGCCGACAAGCTCGGAGACGAAGACAAAGACGGACGACGGAGTCACCTAGTGCAG”: the binding signal is 8490 fluorescence intensity (a.u.). As to “ATGAGAGCTGTTGCACTTGCACACCACTCTCTCGTTCTCTCGGAGTCACCTAGTGCAG”, the binding signal was 8990 fluorescence intensity (a.u.). On to “TCTTCCAGTATCGTACCCGTCCTGTCACAGTAATATGTAACGGAGTCACCTAGTGCAG”, for which the binding signal was 10900 fluorescence intensity (a.u.). The result for “ACCGCTCGCTTCCCACCGGACCGTTCCGAAGCCACCCAACCGGAGTCACCTAGTGCAG” reads 9460 fluorescence intensity (a.u.); that for “GAGTAAGTACCCGACCTAGCCCATCGCGTCTGGCCCCACCCGGAGTCACCTAGTGCAG”, 9880 fluorescence intensity (a.u.). With “ATATTCGTTTTTTTTCTCTCAGTCACATTCTTTTCTTTTCCGGAGTCACCTAGTGCAG”, the binding signal was 9430 fluorescence intensity (a.u.).

For “ACGCCTCATCAGTCATCACCCTCTCAACGCGCGACTCACTCGGAGTCACCTAGTGCAG”, the binding signal was 8820 fluorescence intensity (a.u.). Consider “CGATCAAACATACATCCTTCCATTTGTATACACGCTACATCGGAGTCACCTAGTGCAG”, for which the binding signal was 9210 fluorescence intensity (a.u.). The result for “TCTCACATGTTTGACCATTCGTCTTATTCAAAATTTTTATCGGAGTCACCTAGTGCAG” reads 12100 fluorescence intensity (a.u.); that for “ACCCGGCGTGTGCGACGTGTGGACTTCTGCAACCCTCTCACGGAGTCACCTAGTGCAG”, 8930 fluorescence intensity (a.u.); that for “CTACCCGCGGTTGCACTCCACCACTCGACCACACGTAGCTCGGAGTCACCTAGTGCAG”, 8090 fluorescence intensity (a.u.).

“TTCTTTTTTTTCTTTTTCTCCGATTAATGTGGGAATTTCTCGGAGTCACCTAGTGCAG”: the binding signal is 9620 fluorescence intensity (a.u.). For the sequence “CCATACAACTCTACACTCATCCTAAGCGTTTCGTACACATCGGAGTCACCTAGTGCAG”, the binding signal was 8740 fluorescence intensity (a.u.).

“AATTATTCTCTCTTTTTTTTCTCTCTTGGTATTTCACTCTCGGAGTCACCTAGTGCAG”: the binding signal is 8230 fluorescence intensity (a.u.). Take “TCTTTTACCTGCGTGCCTTCACTCACACTAGCTTGAAACTCGGAGTCACCTAGTGCAG”: the binding signal was 9430 fluorescence intensity (a.u.). The result for “CCTGAGACGATCGGATTCCTAACTGCAGCTCATGATTTTACGGAGTCACCTAGTGCAG” reads 9150 fluorescence intensity (a.u.); that for “ATGCATGTTCCTTCTTTGTCTTTTTCTTTCCTCAATTCCCCGGAGTCACCTAGTGCAG”, 8230 fluorescence intensity (a.u.).

With “AACACACTTTCGAACACAACCTTAATTTTGAATAGTACCTCGGAGTCACCTAGTGCAG”, the binding signal is 8940 fluorescence intensity (a.u.). For “TGCTGTCTCCACTCTACTGTACCCAGCCGCCACCGACTCGCGGAGTCACCTAGTGCAG”, the binding signal was 8660 fluorescence intensity (a.u.). Regarding “ACTTGACTGACTCTTATATTGCTCTTTTGTTTGGAAAATTCGGAGTCACCTAGTGCAG”, the binding signal is 8610 fluorescence intensity (a.u.). In the case of “GCATTAGATGTTTTATATATCCATTCACATTTACTTTATACGGAGTCACCTAGTGCAG”, the binding signal was 10800 fluorescence intensity (a.u.). The result for “ACCACCGCACCCTCGCCATCATCTCACTCTACACACACACCGGAGTCACCTAGTGCAG” reads 8710 fluorescence intensity (a.u.); that for “GACTGGTTTTTTTTGCATTCAGGCCCCTTGCCGCCCCAACCGGAGTCACCTAGTGCAG”, 9780 fluorescence intensity (a.u.); that for “ATCTTTCTAACATAAACACTCCATCTGTTCAGCATTTTTACGGAGTCACCTAGTGCAG”, 9300 fluorescence intensity (a.u.).

Take “AAGGTATGGTTCTTCATTCTTGTCATTTTCTTTTGCAGCACGGAGTCACCTAGTGCAG”: the binding signal is 8220 fluorescence intensity (a.u.). In the case of “ATCTTACCTTTCTTCTATAGCTATGTCTAGTTTCTATTTGCGGAGTCACCTAGTGCAG”, the binding signal is 8150 fluorescence intensity (a.u.). Next, “CTTCTCGTGCTCTCCCCAAAACCCCGCGCGCCCAATTCACCGGAGTCACCTAGTGCAG”: 8310 fluorescence intensity (a.u.); “GCACTAGACCTTCTCTCTTTCAGGATTGATTCCCACTCACCGGAGTCACCTAGTGCAG”: 10100 fluorescence intensity (a.u.). “TTTAGGACTTCCGTCATTTTTTCCGTCCGTCTTGATCGTTCGGAGTCACCTAGTGCAG”: the binding signal is 8910 fluorescence intensity (a.u.). In the case of “AATTTTTTGTTTTGTCAGCTGAGTTCGCGAGCGTTGGATTCGGAGTCACCTAGTGCAG”, the binding signal is 8270 fluorescence intensity (a.u.).

Take “ATATGACCCTTTCGGAGCTATTTTTTTCGTGTCATCATGCCGGAGTCACCTAGTGCAG”: the binding signal was 9840 fluorescence intensity (a.u.).

Take “ATCTTCTCCTAGGTGCAATCCTGTCTTTCAAAAGAGGCCTCGGAGTCACCTAGTGCAG”: the binding signal is 8710 fluorescence intensity (a.u.). As to “CAGGGCTTCTTTTTGTTATCATGCAACCACCTATTAAACTCGGAGTCACCTAGTGCAG”, the binding signal is 10900 fluorescence intensity (a.u.). The result for “TGTAAATACAAATCTTCGCATCTCCACCGTTCATTCTCATCGGAGTCACCTAGTGCAG” reads 10600 fluorescence intensity (a.u.); that for “GTTTAAGTTTTTTTTTGGTCAATTGCAGGGTTTATTCAACCGGAGTCACCTAGTGCAG”, 8240 fluorescence intensity (a.u.); that for “CTCATGTGGCATTTTTTGTGGGTCCAAGGACTATATTAACCGGAGTCACCTAGTGCAG”, 8740 fluorescence intensity (a.u.). As to “GCGTTTCCCGTCGTTGGCGTCAAGGTAGCCGCAGGTGCGGCGGAGTCACCTAGTGCAG”, the binding signal was 8390 fluorescence intensity (a.u.). For the sequence “TATCCAACGCGGCATTACCCGGTGCAACGTACGGACATTTCGGAGTCACCTAGTGCAG”, the binding signal is 8990 fluorescence intensity (a.u.). For the sequence “AATACACTGTTTCGCTTATTCCCACGTTAGGCTGGAGCTGCGGAGTCACCTAGTGCAG”, the binding signal is 9400 fluorescence intensity (a.u.).

For the sequence “GATCTGCCATCTTTGTATATTAAGTTTTAGTATTCATTAGCGGAGTCACCTAGTGCAG”, the binding signal was 8280 fluorescence intensity (a.u.).

“CTCCGTTATCGTTTGACTTTCTTTTCATTAATATTTTAAACGGAGTCACCTAGTGCAG”: the binding signal is 15600 fluorescence intensity (a.u.).
